For 3 molecules, binding results are on record in publication doi:10.1101/2022.05.31.494111.

Results are given in words; binding and its absence hold for the method and conditions named. Some binding calls cover weakened binding; strength is not graded here.

Experiment [1] addresses T1, human IFT81/74 heterodimer (human) (UniProt Q8WYA0).
T1 sequence 1: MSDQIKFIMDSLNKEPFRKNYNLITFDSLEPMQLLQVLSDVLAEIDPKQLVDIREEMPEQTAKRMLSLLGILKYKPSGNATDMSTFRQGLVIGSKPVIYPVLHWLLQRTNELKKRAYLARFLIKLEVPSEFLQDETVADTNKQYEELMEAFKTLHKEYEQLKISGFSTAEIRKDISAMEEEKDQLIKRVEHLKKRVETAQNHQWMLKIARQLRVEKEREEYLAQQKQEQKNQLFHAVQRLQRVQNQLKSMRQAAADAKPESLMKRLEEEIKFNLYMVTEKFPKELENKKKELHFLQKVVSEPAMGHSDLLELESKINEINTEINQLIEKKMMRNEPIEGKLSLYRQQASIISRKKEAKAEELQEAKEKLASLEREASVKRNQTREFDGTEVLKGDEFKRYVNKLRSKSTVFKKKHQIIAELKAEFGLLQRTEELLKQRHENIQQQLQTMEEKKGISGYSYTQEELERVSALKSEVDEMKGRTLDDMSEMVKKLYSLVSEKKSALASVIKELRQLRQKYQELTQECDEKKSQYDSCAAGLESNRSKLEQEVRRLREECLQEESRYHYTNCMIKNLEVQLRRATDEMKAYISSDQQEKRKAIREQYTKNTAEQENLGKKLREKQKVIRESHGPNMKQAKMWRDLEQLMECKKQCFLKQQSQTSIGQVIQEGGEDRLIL
T1 sequence 2: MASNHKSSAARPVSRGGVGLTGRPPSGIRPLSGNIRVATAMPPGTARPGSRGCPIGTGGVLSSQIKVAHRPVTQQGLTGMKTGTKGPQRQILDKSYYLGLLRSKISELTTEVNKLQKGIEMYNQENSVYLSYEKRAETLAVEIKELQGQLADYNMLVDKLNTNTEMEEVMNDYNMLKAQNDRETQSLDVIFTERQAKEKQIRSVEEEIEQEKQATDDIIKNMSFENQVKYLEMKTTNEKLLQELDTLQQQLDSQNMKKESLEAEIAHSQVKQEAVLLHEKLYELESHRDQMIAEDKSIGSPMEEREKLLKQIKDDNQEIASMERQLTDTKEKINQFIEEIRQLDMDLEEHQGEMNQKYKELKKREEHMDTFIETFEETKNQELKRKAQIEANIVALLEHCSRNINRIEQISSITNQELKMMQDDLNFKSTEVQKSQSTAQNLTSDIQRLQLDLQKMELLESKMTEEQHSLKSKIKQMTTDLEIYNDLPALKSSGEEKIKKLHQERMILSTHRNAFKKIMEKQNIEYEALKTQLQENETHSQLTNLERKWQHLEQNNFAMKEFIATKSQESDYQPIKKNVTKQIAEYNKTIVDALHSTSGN
Nature of the experiment: SEC. (Size exclusion chromatography separates by hydrodynamic size, large species first.)

Experiment [2] has as its target T2, human IFT-B1 pentamer HsIFT81/74/27/25/22 (human) (UniProt Q8WYA0+Q96LB3+Q9BW83+Q9Y547+Q9H7X7). Description: SEC.
For experiment [3], the target named is T2, human IFT-B1 pentamer HsIFT81/74/27/25/22 (human). Description: cross-linking.

B1: human IFT27/25 heterodimer (complex, UniProt Q9BW83 1-186; Q9Y547 1-144)
chain 1: MVKLAAKCILAGDPAVGKTALAQIFRSDGAHFQKSYTLTTGMDLVVKTVPVPDTGDSVELFIFDSAGKELFSEMLDKLWESPNVLCLVYDVTNEESFNNCSKWLEKARSQAPGISLPGVLVGNKTDLAGRRAVDSAEARAWALGQGLECFETSVKEMENFEAPFHCLAKQFHQLYREKVEVFRALA
chain 2: MRKIDLCLSSEGSEVILATSSDEKHPPENIIDGNPETFWTTTGMFPQEFIICFHKHVRIERLVIQSYFVQTLKIEKSTSKEPVDFEQWIEKDLVHTEGQLQNEEIVAHDGSATYLRFIIVSAFDHFASVHSVSAEGTVVSNLSS
For the molecule B1, the binding result in experiment [1] was “binds”.

B2: human RabL2B (protein, UniProt Q9UNT1 1-228)
chain: MAEDKTKPSELDQGKYDADDNVKIICLGDSAVGKSKLMERFLMDGFQPQQLSTYALTLYKHTATVDGRTILVDFWDTAGQERFQSMHASYYHKAHACIMVFDVQRKVTYRNLSTWYTELREFRPEIPCIVVANKIDDINVTQKSFNFAKKFSLPLYFVSAADGTNVVKLFNDAIRLAVSYKQNSQDFMDEIFQELENFSLEQEEEDVPDQEQSSSIETPSEEAASPHS
On to B2, for which the binding entry in experiment [2] and in experiment [3] was “binds” each time.

B3: human IFT22 (protein, UniProt Q9H7X7 1-185)
chain: MLKAKILFVGPCESGKTVLANFLTESSDITEYSPTQGVRILEFENPHVTSNNKGTGCEFELWDCGGDAKFESCWPALMKDAHGVVIVFNADIPSHRKEMEMWYSCFVQQPSLQDTQCMLIAHHKPGSGDDKGSLSLSPPLNKLKLVHSNLEDDPEEIRMEFIKYLKSIINSMSESRDREEMSIMT
B3: the binding result in experiment [1] is on record as “binds”.
